This passage reports binding result and Kd results from doi:10.1101/338061.

Where a chain is given by its changes, count along the chain named. For some of these results: Weaker means in comparison with the reference protein, sequence or condition of that experiment. Tags and fusion partners may be left off the protein sequences shown. For some of these results: Construct, isoform or probe ends are uncertain for at least one entry. For some of these results: At least one verdict rests on a figure or table, not on a statement of the authors.

Data set [1] has as its target T1, MBD3 MBD (crystallization) (Homo sapiens) (UniProt O95983).
T1 sequence (looked up): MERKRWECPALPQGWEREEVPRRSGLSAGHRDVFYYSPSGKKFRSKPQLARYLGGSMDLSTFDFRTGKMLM
Nature of the data set: crystal structure. The following applies: 5mC at position 6 of both strands; residues 1-71.

In data set [2] the target is T2, MBD3 MBD (Homo sapiens) (UniProt O95983).
T2 sequence (looked up): T1 sequence (looked up)
The data set can be described thus: ITC. The following applies: residues 1-71.

Data set [3] concerns the target T3, MBD4 MBD (Homo sapiens) (UniProt O95243).
T3 sequence (looked up): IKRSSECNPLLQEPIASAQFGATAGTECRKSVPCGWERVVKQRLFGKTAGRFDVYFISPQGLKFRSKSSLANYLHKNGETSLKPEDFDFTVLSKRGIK
The data set can be described thus: ITC. The following applies: 5hmC at position 6 of both strands; residues 55-152.

Data set [4] addresses T4, MBD1 MBD (Homo sapiens) (UniProt Q9UIS9).
T4 sequence (looked up): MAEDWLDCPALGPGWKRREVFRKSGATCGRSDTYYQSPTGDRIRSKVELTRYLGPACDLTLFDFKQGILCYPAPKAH
Nature of the data set: ITC. To be noted: 5hmC at position 6 of both strands; residues 1-77.

Data set [5] has as its target T5, MBD3 MBD F34Y (Homo sapiens) (UniProt O95983).
T5 sequence (looked up): T1 sequence (looked up) with F34Y
Nature of the data set: ITC. To be noted: 5mC at position 6 of both strands; residues 1-71.

Turning to “GCCAACGTTGGC (double strand) [AmCGT (mCG)]”, in data set [1], the binding result is reported as “binds”.

Take GCCAACGCTGGC (double strand) [AmCGC]: the Kd (usually the concentration at which binding is half-saturated) in data set [2] (5mC at position 6 of both strands) is 3700 nM.

GCCAGCGCTGGC (double strand) [hmCG]: the binding result in data set [3], in data set [4] and in data set [2] (5hmC at position 6 of both strands) was “binds more weakly” each time.

On to GCCAGCGCTGGC (double strand) [GmCGC], for which the binding result in data set [1] is given as “binds”. The equilibrium dissociation constant (Kd) in data set [5] turned out to be 400 nM.
